Assay results from article PMC7002697.

Sequences of proteins named here, by UniProt entry; tags and fusion partners are left off. A change or cut given only in a name is not applied to a line headed by its entry.
UniProt P72839: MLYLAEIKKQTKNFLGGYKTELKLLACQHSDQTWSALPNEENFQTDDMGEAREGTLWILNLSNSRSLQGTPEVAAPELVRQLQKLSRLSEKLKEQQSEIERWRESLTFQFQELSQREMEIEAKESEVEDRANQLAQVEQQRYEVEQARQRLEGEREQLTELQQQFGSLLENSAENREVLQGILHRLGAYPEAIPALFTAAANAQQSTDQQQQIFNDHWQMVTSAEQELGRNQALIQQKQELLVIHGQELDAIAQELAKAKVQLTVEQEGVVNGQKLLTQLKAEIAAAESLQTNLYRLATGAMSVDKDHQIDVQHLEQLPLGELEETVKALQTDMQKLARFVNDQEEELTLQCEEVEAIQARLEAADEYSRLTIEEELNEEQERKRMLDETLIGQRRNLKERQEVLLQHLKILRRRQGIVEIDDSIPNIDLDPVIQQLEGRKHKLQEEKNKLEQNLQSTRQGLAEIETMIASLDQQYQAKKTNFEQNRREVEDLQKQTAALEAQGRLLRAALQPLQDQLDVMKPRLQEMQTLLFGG
UniProt P74463: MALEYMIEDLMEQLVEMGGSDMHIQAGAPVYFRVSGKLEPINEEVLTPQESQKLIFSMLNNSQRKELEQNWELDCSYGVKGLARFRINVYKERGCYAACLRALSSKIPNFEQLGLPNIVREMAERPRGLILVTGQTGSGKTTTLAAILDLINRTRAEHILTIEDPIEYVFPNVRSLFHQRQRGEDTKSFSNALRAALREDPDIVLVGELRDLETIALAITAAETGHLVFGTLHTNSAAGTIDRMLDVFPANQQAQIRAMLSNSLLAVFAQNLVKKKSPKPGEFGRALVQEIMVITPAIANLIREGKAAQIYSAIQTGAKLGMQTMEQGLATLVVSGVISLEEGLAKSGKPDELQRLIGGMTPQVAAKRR

B1: FtsZ (Synechocystis) (protein, UniProt P73456 1-430)
chain: MTLNNDLPLNNIGFTGSGLNDGTEGLDDLFSSSIVDNEPLEALVETPTFASPSPNLKRDQIVPSNIAKIKVIGVGGGGCNAVNRMIASGVTGIDFWAINTDSQALTNTNAPDCIQIGQKLTRGLGAGGNPAIGQKAAEESRDEIARSLEGTDLVFITAGMGGGTGTGAAPIVAEVAKEMGCLTVGIVTRPFTFEGRRRAKQAEEGINALQSRVDTLIVIPNNQLLSVIPAETPLQEAFRVADDILRQGVQGISDIIIIPGLVNVDFADVRAVMADAGSALMGIGVGSGKSRAKEAATAAISSPLLESSIQGAKGVVFNVTGGTDLTLHEVNVAAEIIYEVVDADANIIFGAVIDDRLQGEMRITVIATGFNGEKEKPQAKTSSKPVLSGPPAGVETVPSTTTPEDPLGEIPMAPELDIPDFLQKRRFPRR
B2: MinD (Synechocystis) (protein, UniProt Q55900 1-266)
chain: MNRIIVVTSGKGGVGKTTTTANLGAALARLGKKVVLIDADFGLRNLDLLLGLEQRIVYTAIDVLADECTIDKALVKDKRLPNLVLLPAAQNRSKDAINAEQMQSLVEQLKDKFDYIIIDCPAGIEAGFRNAVAPAQEAIIVTTPEMSAVRDADRVIGLLEAEDIGKISLIVNRLRPEMVQLNQMISVEDILDLLAVPLIGILPDDQKIIISTNKGEPLVMEEKLSVPGLAFQNIARRLEGQDIPFLDFMAAHNTLLNRIRRRLLGG

How the values were obtained:
[1] = biological target: HmpFSyn-YFP (Synechocystis sp. PCC 6803) (UniProt P72839); test: affinity purification with mass spectrometry; anti-GFP μMACS MicroBeads on cell-free lysate (PBS, 1% NP-40) of Synechocystis expressing HmpFSyn-YFP or Anabaena expressing YFP-All4981^ΔTPR3–4; eluted proteins identified by LC-MS/MS
[2] = biological target: HmpFSyn-YFP (Synechocystis sp. PCC 6803) (UniProt P72839); test: as above; remark: listed apart in the source

| Molecule | binding [1] | binding [2] |
| --- | --- | --- |
| twitching motility protein (Slr0161) (from UniProt P74463) | binds |  |
| B1 |  | binds |
| B2 |  | binds |

Where two headings read alike, the source gives them in different places. No constants are given. Whether binding was seen depends on the method and setting. Binding seen in cells or lysates may run through a third protein. Here binding means that the protein was enriched with, or labelled near, the bait; the list need not be complete.
